The supplement of paper PMC10849652
This is one part of the list.

Sequences of proteins named here, by UniProt entry; tags and fusion partners are left off. A change or cut given only in a name is not applied to a line headed by its entry.
UniProt Q9NSI2: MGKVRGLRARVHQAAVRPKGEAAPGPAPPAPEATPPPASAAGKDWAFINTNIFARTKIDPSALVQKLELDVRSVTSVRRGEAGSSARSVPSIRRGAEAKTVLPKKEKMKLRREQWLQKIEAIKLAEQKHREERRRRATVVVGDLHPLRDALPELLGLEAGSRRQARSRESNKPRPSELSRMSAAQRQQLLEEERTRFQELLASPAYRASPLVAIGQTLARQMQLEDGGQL
UniProt Q93063: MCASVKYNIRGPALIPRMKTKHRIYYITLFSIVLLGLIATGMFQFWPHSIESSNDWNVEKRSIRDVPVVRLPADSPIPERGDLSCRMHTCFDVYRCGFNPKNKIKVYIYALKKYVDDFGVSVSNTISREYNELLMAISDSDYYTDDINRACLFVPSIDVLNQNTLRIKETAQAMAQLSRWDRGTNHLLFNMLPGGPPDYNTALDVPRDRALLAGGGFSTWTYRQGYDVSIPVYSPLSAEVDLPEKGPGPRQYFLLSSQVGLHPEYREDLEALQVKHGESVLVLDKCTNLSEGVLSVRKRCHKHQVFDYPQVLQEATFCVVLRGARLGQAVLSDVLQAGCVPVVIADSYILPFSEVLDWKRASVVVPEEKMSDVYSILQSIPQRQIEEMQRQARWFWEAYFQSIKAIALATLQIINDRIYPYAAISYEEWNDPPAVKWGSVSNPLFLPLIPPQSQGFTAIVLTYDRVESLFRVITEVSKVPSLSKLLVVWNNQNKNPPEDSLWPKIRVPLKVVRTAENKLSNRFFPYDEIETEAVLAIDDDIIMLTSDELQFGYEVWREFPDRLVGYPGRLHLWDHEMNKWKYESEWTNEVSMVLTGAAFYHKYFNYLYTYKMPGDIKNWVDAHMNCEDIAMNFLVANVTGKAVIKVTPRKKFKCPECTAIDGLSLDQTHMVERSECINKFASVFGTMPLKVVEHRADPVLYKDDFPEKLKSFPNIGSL
UniProt Q9C073: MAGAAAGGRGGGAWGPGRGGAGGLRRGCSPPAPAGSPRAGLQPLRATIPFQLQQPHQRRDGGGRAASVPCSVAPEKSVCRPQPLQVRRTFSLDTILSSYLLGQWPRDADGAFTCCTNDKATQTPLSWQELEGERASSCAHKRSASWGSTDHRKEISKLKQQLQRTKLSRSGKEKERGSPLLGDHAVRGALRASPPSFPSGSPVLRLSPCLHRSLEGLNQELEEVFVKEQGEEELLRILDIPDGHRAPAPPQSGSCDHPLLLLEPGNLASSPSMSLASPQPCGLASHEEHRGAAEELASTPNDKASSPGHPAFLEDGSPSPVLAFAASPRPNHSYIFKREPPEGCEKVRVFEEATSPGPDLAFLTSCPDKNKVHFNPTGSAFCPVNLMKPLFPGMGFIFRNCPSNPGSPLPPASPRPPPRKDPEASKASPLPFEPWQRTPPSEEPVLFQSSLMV
UniProt Q99504: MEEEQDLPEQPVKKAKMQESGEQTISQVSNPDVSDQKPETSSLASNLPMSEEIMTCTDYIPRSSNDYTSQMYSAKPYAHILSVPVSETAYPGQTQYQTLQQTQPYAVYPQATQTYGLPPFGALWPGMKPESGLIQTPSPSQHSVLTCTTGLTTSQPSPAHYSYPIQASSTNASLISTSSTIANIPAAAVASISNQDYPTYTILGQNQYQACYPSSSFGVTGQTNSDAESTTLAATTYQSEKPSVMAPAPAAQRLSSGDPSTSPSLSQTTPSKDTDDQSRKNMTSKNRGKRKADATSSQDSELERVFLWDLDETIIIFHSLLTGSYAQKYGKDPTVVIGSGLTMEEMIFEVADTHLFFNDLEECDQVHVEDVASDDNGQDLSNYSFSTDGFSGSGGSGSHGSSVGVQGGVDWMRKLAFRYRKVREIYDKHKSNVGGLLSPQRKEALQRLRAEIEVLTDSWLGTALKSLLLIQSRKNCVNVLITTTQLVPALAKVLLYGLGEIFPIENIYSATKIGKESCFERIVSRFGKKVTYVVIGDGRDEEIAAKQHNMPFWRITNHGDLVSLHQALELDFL
UniProt Q9GZU8: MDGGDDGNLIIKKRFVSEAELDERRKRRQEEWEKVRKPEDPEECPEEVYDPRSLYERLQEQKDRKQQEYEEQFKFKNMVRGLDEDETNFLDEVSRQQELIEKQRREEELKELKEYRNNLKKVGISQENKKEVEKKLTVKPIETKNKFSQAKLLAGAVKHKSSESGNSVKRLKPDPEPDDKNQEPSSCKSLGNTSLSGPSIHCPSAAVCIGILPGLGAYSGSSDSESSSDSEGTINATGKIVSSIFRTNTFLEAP
UniProt Q01469, whole entry, looked up: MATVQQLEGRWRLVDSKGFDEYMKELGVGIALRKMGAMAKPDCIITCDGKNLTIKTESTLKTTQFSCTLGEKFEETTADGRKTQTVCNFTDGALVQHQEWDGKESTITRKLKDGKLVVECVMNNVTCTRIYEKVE
UniProt Q9NQT5, whole entry, looked up: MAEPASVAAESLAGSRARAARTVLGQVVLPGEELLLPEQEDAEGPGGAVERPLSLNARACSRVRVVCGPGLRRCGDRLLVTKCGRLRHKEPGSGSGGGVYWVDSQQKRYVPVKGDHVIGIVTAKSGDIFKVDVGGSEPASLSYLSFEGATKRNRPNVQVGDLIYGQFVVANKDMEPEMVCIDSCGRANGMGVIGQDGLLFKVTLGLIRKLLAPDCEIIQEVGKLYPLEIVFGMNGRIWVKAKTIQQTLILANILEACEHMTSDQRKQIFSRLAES
UniProt Q9NPD3, whole entry, looked up: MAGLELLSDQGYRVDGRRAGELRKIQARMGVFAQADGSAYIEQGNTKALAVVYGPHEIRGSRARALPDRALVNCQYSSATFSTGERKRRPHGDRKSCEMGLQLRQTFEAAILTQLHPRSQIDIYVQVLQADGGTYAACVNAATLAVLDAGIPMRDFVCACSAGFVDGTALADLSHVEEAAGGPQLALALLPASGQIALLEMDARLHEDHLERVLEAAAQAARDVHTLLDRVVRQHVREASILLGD
UniProt Q0VG06: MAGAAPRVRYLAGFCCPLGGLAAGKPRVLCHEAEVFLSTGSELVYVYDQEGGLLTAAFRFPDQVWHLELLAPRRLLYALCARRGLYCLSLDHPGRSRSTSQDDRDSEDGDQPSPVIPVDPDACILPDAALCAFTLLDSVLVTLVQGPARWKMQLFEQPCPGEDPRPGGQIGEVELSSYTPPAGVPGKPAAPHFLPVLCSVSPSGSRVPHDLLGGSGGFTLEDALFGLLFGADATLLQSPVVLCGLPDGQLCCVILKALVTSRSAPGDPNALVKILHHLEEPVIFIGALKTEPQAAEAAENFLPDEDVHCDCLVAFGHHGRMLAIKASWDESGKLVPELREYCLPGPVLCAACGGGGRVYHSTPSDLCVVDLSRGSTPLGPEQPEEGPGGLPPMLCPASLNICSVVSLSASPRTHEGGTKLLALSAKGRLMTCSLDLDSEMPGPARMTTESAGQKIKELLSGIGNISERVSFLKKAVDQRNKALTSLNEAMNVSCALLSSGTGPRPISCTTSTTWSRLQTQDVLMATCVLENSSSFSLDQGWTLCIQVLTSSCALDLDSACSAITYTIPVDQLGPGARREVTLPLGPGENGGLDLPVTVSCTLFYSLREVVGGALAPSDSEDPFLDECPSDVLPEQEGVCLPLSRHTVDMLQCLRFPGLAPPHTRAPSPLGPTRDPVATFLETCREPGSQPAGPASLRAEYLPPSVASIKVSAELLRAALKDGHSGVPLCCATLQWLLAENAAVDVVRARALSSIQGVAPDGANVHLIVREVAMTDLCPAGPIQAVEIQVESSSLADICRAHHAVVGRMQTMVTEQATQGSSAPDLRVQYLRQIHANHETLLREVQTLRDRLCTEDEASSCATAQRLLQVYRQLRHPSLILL
UniProt Q9UI08, whole entry, looked up: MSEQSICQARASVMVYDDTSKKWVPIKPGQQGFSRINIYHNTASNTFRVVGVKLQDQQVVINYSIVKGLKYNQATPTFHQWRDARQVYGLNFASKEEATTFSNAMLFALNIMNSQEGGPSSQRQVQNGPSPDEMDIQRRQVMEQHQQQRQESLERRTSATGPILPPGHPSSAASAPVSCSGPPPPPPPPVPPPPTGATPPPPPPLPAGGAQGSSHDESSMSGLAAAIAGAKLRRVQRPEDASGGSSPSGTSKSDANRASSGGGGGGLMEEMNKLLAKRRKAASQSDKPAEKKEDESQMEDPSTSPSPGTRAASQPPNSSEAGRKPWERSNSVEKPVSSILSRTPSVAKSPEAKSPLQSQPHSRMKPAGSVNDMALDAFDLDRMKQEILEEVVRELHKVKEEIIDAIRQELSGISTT
UniProt P16930: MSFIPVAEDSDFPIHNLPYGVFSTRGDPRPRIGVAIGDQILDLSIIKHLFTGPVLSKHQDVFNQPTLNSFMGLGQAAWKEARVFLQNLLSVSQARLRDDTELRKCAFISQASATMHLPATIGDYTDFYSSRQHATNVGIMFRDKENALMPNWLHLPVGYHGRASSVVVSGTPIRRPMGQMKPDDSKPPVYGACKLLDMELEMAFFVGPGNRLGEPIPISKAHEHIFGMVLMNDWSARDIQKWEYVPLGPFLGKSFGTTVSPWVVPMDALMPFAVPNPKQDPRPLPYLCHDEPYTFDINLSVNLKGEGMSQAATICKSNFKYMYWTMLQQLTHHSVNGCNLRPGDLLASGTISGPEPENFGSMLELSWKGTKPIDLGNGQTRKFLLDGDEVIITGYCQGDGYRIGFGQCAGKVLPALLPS
UniProt Q9H098: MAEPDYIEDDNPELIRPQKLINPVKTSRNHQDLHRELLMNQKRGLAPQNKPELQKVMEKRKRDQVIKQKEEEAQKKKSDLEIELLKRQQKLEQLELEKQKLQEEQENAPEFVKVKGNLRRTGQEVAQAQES
UniProt Q13158: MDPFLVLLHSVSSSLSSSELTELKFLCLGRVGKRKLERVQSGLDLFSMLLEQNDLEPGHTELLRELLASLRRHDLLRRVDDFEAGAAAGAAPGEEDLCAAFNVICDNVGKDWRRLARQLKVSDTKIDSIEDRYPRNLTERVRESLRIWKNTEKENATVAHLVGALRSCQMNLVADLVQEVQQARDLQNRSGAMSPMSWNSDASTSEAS
UniProt Q8WUF8: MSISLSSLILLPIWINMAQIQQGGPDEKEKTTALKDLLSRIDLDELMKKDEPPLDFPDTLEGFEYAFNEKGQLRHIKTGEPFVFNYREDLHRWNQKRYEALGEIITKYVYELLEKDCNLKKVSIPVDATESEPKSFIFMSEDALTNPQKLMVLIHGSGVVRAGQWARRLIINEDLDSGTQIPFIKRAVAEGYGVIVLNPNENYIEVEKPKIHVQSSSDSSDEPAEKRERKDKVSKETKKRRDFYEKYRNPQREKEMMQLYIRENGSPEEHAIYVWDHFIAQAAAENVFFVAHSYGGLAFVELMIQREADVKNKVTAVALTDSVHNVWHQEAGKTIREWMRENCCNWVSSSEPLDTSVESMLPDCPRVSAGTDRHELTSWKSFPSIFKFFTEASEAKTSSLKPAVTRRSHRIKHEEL

How the values were obtained:
Test in all cases: log2 fold change, soluble protein after heating vs DMSO (PISA); higher = thermal stabilisation; K562 lysate, 10 uM; active = over 0.2 and 3.5 SD of the protein, either way, in both replicates (recomputed)
lapatinib = compound: CS(=O)(=O)CCNCc1ccc(-c2ccc3ncnc(Nc4ccc(OCc5cccc(F)c5)c(Cl)c4)c3c2)o1 [lapatinib]
Procedure, shortened: (§1)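 Following dounce homogenisation of K562 pellets in PBS pH 7.4 with 1 mM MgCl2, crude extract at 1 mg/mL protein was incubated for 30 min with 10 μM compound. Aliquots were then heated for 3 min over 48°C-58°C and pooled, NP-40 was added to 0.5% at 4°C, and soluble protein was recovered as the supernatant at 21,000xg for 90 min. Channel-sum-equalised TMTpro 16plex LC-MS/MS quantified this protein. Each value, from duplicates, is a log-two fold change in thermal stability relative to solvent controls.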

pictilisib = compound: CS(=O)(=O)N1CCN(Cc2cc3nc(-c4cccc5[nH]ncc45)nc(N4CCOCC4)c3s2)CC1 [pictilisib]
Procedure, shortened: as §1

crizotinib = compound: C[C@@H](Oc1cc(-c2cnn(C3CCNCC3)c2)cnc1N)c1c(Cl)ccc(F)c1Cl [crizotinib]
Procedure, shortened: as §1

[1] = compound: C[C@H](C1=CC=C(C=C1)C(=O)NC2=C3C=CNC3=NC=C2)N
Procedure, shortened: as §1

duvelisib = compound: C[C@H](Nc1ncnc2nc[nH]c12)c1cc2cccc(Cl)c2c(=O)n1-c1ccccc1 [duvelisib]
Procedure, shortened: as §1

gandotinib = compound: Cc1cc(Nc2cc(CN3CCOCC3)c3nc(C)c(Cc4ccc(Cl)cc4F)n3n2)n[nH]1 [gandotinib]
Procedure, shortened: as §1

tozasertib = compound: Cc1cc(Nc2cc(N3CCN(C)CC3)nc(Sc3ccc(NC(=O)C4CC4)cc3)n2)n[nH]1 [tozasertib]
Procedure, shortened: as §1

doramapimod = compound: Cc1ccc(-n2nc(C(C)(C)C)cc2NC(=O)Nc2ccc(OCCN3CCOCC3)c3ccccc23)cc1 [doramapimod]
Procedure, shortened: as §1

bafetinib = compound: Cc1ccc(NC(=O)c2ccc(CN3CC[C@H](N(C)C)C3)c(C(F)(F)F)c2)cc1Nc1nccc(-c2cncnc2)n1 [bafetinib]
Procedure, shortened: as §1

[2] = compound: Cc1cccc(CC(=O)N2CCc3c2ccc(-c2cn(C)c4ncnc(N)c24)c3F)n1
Procedure, shortened: as §1

nilotinib = compound: Cc1cn(-c2cc(NC(=O)c3ccc(C)c(Nc4nccc(-c5cccnc5)n4)c3)cc(C(F)(F)F)c2)cn1 [nilotinib]
Procedure, shortened: as §1

[3] = compound: Cc1nc(Nc2n[nH]c3c2CN(C(=O)N[C@H](CN(C)C)c2ccccc2)C3(C)C)c2sccc2n1
Procedure, shortened: as §1

dasatinib = compound: Cc1nc(Nc2ncc(C(=O)Nc3c(C)cccc3Cl)s2)cc(N2CCN(CCO)CC2)n1 [dasatinib]
Procedure, shortened: as §1

[4] = compound: Cc1ncc(-c2ccnc(Nc3ccc(S(C)(=O)=O)cc3)n2)n1C(C)C
Procedure, shortened: as §1

[5] = compound: Cn1cc(-c2ccc3c(c2)CCN3C(=O)Cc2cccc(C(F)(F)F)c2)c2c(N)ncnc21
Procedure, shortened: as §1

quisinostat = compound: Cn1cc(CNCC2CCN(c3ncc(C(=O)NO)cn3)CC2)c2ccccc21 [quisinostat]
Procedure, shortened: as §1

tipifarnib = compound: Cn1cncc1[C@@](N)(c1ccc(Cl)cc1)c1ccc2c(c1)c(-c1cccc(Cl)c1)cc(=O)n2C [tipifarnib]
Procedure, shortened: as §1

[6] = compound: NC(=O)Nc1cc(-c2cccc(F)c2)sc1C(=O)N[C@H]1CCCNC1
Procedure, shortened: as §1

[7] = compound: NC(=O)c1cnc(N[C@@H]2CCCC[C@@H]2N)nc1Nc1cccc(-n2nccn2)c1
Procedure, shortened: as §1

[8] = compound: NC1(c2ccc(-c3nc4ccn5c(=O)[nH]nc5c4cc3-c3ccccc3)cc2)CCC1
Procedure, shortened: as §1

Measured: log2 fold change

FAM207A (UniProt Q9NSI2)
inactive: lapatinib 0.005 | pictilisib 0.018 | crizotinib -0.017 | [1] 0.03 | duvelisib -0.021 | gandotinib 0.022 | tozasertib 0.066 | doramapimod 0.009 | bafetinib -0.013 | [2] -0.008 | nilotinib -0.004 | [3] 0.012 | dasatinib 0.007 | [4] -0.029 | [5] 0.004 | quisinostat -0.005 | tipifarnib 0.008 | [6] 0.016 | [7] -0.006 | [8] -0.002

EXT2 isoform 3 (UniProt Q93063)
inactive: lapatinib -0.048 | pictilisib -0.194 | crizotinib -0.046 | [1] 0.002 | duvelisib 0.057 | gandotinib -0.037 | tozasertib 0.037 | doramapimod -0.014 | bafetinib -0.025 | [2] 0.07 | nilotinib 0.085 | [3] 0.101 | dasatinib 0.091 | [4] 0.007 | [5] 0.111 | quisinostat 0.003 | tipifarnib -0.048 | [6] 0.012 | [7] -0.165 | [8] -0.028

FAM136A (UniProt Q96C01)
inactive: lapatinib 0.012 | pictilisib -0.069 | crizotinib 0.066 | [1] 0.027 | duvelisib 0.014 | gandotinib -0.009 | tozasertib 0.029 | doramapimod -0.011 | bafetinib -0.023 | [2] 0 | nilotinib -0.02 | [3] -0.02 | dasatinib 0.021 | [4] -0.013 | [5] 0.001 | quisinostat -0.042 | tipifarnib 0.017 | [6] 0.029 | [7] 0.001 | [8] -0.006

ERP29 (UniProt P30040)
inactive: lapatinib -0.002 | pictilisib 0.017 | crizotinib 0.052 | [1] 0.17 | duvelisib -0.005 | gandotinib -0.053 | tozasertib 0.022 | doramapimod -0.043 | bafetinib 0.022 | [2] -0.113 | nilotinib 0.042 | [3] -0.015 | dasatinib 0.011 | [4] -0.012 | [5] 0.006 | quisinostat 0.06 | tipifarnib 0.028 | [6] -0.006 | [7] -0.019 | [8] 0.012

FAM117A (UniProt Q9C073)
inactive: lapatinib -0.026 | pictilisib -0.012 | crizotinib 0.016 | [1] 0.062 | duvelisib 0.021 | gandotinib 0.003 | tozasertib -0.025 | doramapimod 0.019 | bafetinib -0.005 | [2] -0.046 | nilotinib 0.007 | [3] 0.098 | dasatinib -0.034 | [4] 0.023 | [5] -0.054 | quisinostat -0.058 | tipifarnib 0.009 | [6] 0.051 | [7] 0.01 | [8] 0.009

EYA3 (UniProt Q99504)
inactive: lapatinib 0.03 | pictilisib -0.071 | crizotinib -0.081 | [1] -0.015 | duvelisib 0.009 | gandotinib 0.001 | tozasertib 0.106 | doramapimod -0.036 | bafetinib -0.045 | [2] 0.06 | nilotinib 0.007 | [3] -0.003 | dasatinib -0.034 | [4] -0.004 | [5] -0.003 | quisinostat -0.103 | tipifarnib -0.094 | [6] 0.061 | [7] 0.024 | [8] -0.093

FAM192A (UniProt Q9GZU8)
inactive: lapatinib 0.011 | pictilisib 0.014 | crizotinib 0.041 | [1] 0.013 | duvelisib -0.012 | gandotinib 0.051 | tozasertib 0.069 | doramapimod 0.029 | bafetinib -0.034 | [2] 0.022 | nilotinib -0.009 | [3] -0.004 | dasatinib 0.084 | [4] -0.025 | [5] 0.028 | quisinostat 0 | tipifarnib 0.023 | [6] 0.008 | [7] 0.008 | [8] 0.029

FABP5 (UniProt Q01469)
inactive: lapatinib 0.06 | pictilisib 0.011 | crizotinib 0.003 | [1] 0.046 | duvelisib -0.047 | gandotinib 0.032 | tozasertib 0.097 | doramapimod 0.044 | bafetinib 0.145 | [2] -0.014 | nilotinib 0.071 | [3] 0.048 | dasatinib 0.072 | [4] 0.026 | [5] 0.006 | quisinostat 0.141 | tipifarnib 0.012 | [6] -0.087 | [7] -0.009 | [8] 0.023

EXOSC3 (UniProt Q9NQT5)
inactive: lapatinib -0.051 | pictilisib -0.028 | crizotinib -0.052 | [1] -0.063 | duvelisib 0.033 | gandotinib 0.044 | tozasertib -0.005 | doramapimod 0.031 | bafetinib -0.14 | [2] 0.058 | nilotinib 0 | [3] -0.01 | dasatinib -0.028 | [4] -0.03 | [5] -0.037 | quisinostat -0.083 | tipifarnib -0.037 | [6] 0.036 | [7] 0.027 | [8] -0.006

EXOSC4 (UniProt Q9NPD3)
inactive: lapatinib -0.014 | pictilisib -0.018 | crizotinib -0.002 | [1] -0.003 | duvelisib 0.025 | gandotinib 0.073 | tozasertib 0.014 | doramapimod 0.063 | bafetinib -0.036 | [2] 0.017 | nilotinib 0.005 | [3] 0.029 | dasatinib 0.058 | [4] -0.024 | [5] 0.006 | quisinostat -0.031 | tipifarnib 0.025 | [6] 0.043 | [7] -0.026 | [8] -0.057

FAAP100 (UniProt Q0VG06)
inactive: lapatinib -0.114 | pictilisib -0.078 | crizotinib -0.023 | [1] 0.023 | duvelisib 0.024 | gandotinib 0.012 | tozasertib -0.036 | doramapimod 0.018 | bafetinib -0.005 | [2] 0.023 | nilotinib -0.013 | [3] 0.033 | dasatinib 0.057 | [4] -0.037 | [5] -0.025 | quisinostat -0.041 | tipifarnib 0.071 | [6] -0.021 | [7] -0.03 | [8] -0.025

EVL isoform 2 (UniProt Q9UI08)
inactive: lapatinib 0.013 | pictilisib -0.049 | crizotinib -0.037 | [1] 0.014 | duvelisib 0.066 | gandotinib 0.05 | tozasertib 0.028 | doramapimod -0.014 | bafetinib -0.051 | [2] 0.005 | nilotinib 0.178 | [3] -0.043 | dasatinib 0.082 | [4] -0.084 | [5] 0.058 | quisinostat -0.015 | tipifarnib -0.01 | [6] 0.007 | [7] -0.006 | [8] 0.067

FAH (UniProt P16930)
inactive: lapatinib -0.009 | pictilisib -0.025 | crizotinib 0.021 | [1] -0.14 | duvelisib -0.011 | gandotinib 0.136 | tozasertib -0.031 | doramapimod -0.034 | bafetinib 0.165 | [2] 0.089 | nilotinib 0.054 | [3] -0.011 | dasatinib 0.009 | [4] 0.007 | [5] 0.003 | quisinostat 0.02 | tipifarnib -0.004 | [6] -0.034 | [7] -0.037 | [8] -0.017

FAM107B isoform 2 (UniProt Q9H098)
inactive: lapatinib -0.02 | pictilisib -0.001 | crizotinib -0.03 | [1] 0.084 | duvelisib 0.13 | gandotinib -0.017 | tozasertib -0.069 | doramapimod -0.102 | bafetinib 0.011 | [2] -0.081 | nilotinib -0.198 | [3] 0.038 | dasatinib 0.079 | [4] -0.101 | [5] 0.096 | quisinostat -0.025 | tipifarnib -0.106 | [6] 0.074 | [7] -0.004 | [8] -0.082

Reprinted from the entries so far (3 entries):
FAM207A (UniProt Q9NSI2)
inactive: lapatinib 0.005 | pictilisib 0.018 | crizotinib -0.017 | [1] 0.03 | duvelisib -0.021 | gandotinib 0.022 | tozasertib 0.066 | doramapimod 0.009 | bafetinib -0.013 | [2] -0.008 | nilotinib -0.004 | [3] 0.012 | dasatinib 0.007 | [4] -0.029 | [5] 0.004 | quisinostat -0.005 | tipifarnib 0.008 | [6] 0.016 | [7] -0.006 | [8] -0.002

EXT2 isoform 3 (UniProt Q93063)
inactive: lapatinib -0.048 | pictilisib -0.194 | crizotinib -0.046 | [1] 0.002 | duvelisib 0.057 | gandotinib -0.037 | tozasertib 0.037 | doramapimod -0.014 | bafetinib -0.025 | [2] 0.07 | nilotinib 0.085 | [3] 0.101 | dasatinib 0.091 | [4] 0.007 | [5] 0.111 | quisinostat 0.003 | tipifarnib -0.048 | [6] 0.012 | [7] -0.165 | [8] -0.028

FAM136A (UniProt Q96C01)
inactive: lapatinib 0.012 | pictilisib -0.069 | crizotinib 0.066 | [1] 0.027 | duvelisib 0.014 | gandotinib -0.009 | tozasertib 0.029 | doramapimod -0.011 | bafetinib -0.023 | [2] 0 | nilotinib -0.02 | [3] -0.02 | dasatinib 0.021 | [4] -0.013 | [5] 0.001 | quisinostat -0.042 | tipifarnib 0.017 | [6] 0.029 | [7] 0.001 | [8] -0.006

Next part.

FADD (UniProt Q13158)
inactive: lapatinib -0.004 | pictilisib 0 | crizotinib -0.031 | [1] -0.001 | duvelisib 0.021 | gandotinib -0.004 | tozasertib 0.049 | doramapimod -0.003 | bafetinib -0.109 | [2] 0.042 | nilotinib -0.02 | [3] -0.038 | dasatinib 0.002 | [4] -0.027 | [5] 0.003 | quisinostat -0.008 | tipifarnib -0.03 | [6] 0.022 | [7] 0.029 | [8] -0.031

FAM172A (UniProt Q8WUF8)
inactive: lapatinib 0.014 | pictilisib -0.204 | duvelisib -0.011 | tozasertib -0.13 | bafetinib -0.12 | nilotinib 0.295 | [3] 0.006 | dasatinib 0.02 | [4] -0.046 | [5] 0.282 | tipifarnib 0.011 | [7] 0.013 | [8] -0.078

F2 (UniProt P00734)
inactive: lapatinib -0.012 | pictilisib 0.084 | tozasertib -0.078 | bafetinib -0.004 | [7] -0.041
